Hit rate of the full screen: of about 360,000 compounds, about 7,500 (2.1%) were called active. Inconclusive means that the source gave no clear call. Such entries were picked first, then a sample of the others. Calls come from the whole dose curve; as a rule, active = well fitted inhibition curve with a large enough effect; inconclusive = small, poorly fitted or top-dose-only effect, or effect the other way; inactive = flat fitted curve, though single readings scatter. Potencies of inconclusive entries are doubtful fits and often do not repeat.
Experiment: Nrf2 qHTS screen for inhibitors; note: nearly all actives have a fitted effect of over 60% in size
Details: A549 ARE-Fluc reporter, luciferase luminescence, 18-24 h; activity change, negative = inhibition: at 46 µM (top of the series)
Procedure, shortened: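 Concentration-response testing used A549 ARE_Fluc cells at 5000 cells/well. Following an 18-24 h compound incubation, viability was read by fluorescence (Ex 405/Em 525) and luciferase output by luminescence.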
% is set by controls: 0 for no effect and ±100 for the full control effect; potency is the fitted concentration of half-maximal effect.

Compound	Potency	activity change, negative = inhibition
O=C(c1cccs1)N1CCN(c2nc3c(F)cc(F)cc3s2)CC1	inconclusive: 20.6 µM [falling, single point]	–
COc1ccccc1C(=O)n1nc(-c2ccco2)nc1NCc1ccc(Cl)cc1	inconclusive: 13 µM [activator, partial curve]	–
O=C(Nc1cnn(C23CC4CC(CC(C4)C2)C3)c1)c1cnn2cccnc12	inconclusive: 1.03 µM [activator, full curve, poor fit]	–
Cc1ccccc1NC(=O)c1ccc(C)c(S(=O)(=O)N2CCN(C)CC2)c1	–	inactive: 3.42%
O=C(Nc1ccc(F)cc1F)N1CCCN(c2ccc([N+](=O)[O-])cn2)CC1	inconclusive: 16.4 µM [falling, partial curve, poor fit]	–
OC(COc1ccccc1)CN1CCN(c2ccccc2)CC1 (configuration not stated)	inconclusive: 9.2 µM [activator, partial curve, poor fit]	–
O=C(c1cccnc1)C1CCCN(Cc2nc(Cc3ccccc3)no2)C1 (configuration not stated)	inconclusive: 1.16 µM [falling, full curve, poor fit]	–
CSc1ncc(CN2CCN(C(C)C)C(CCO)C2)cn1 (configuration not stated)	inconclusive: 23.1 µM [activator, partial curve, poor fit]	–
Clc1ccc(-n2nnc(-c3cccnc3Cl)n2)cc1Cl	inconclusive: 1.84 µM [activator, full curve, poor fit]	–
CC1CCC(NC(=O)c2cc(Cl)nc3ccccc23)CC1 (configuration not stated)	inconclusive: 0.146 µM [falling, full curve, poor fit]	–
O=c1cc(/C=C/c2ccccc2)oc2c1ccc1ccccc12	inconclusive: 5.17 µM [falling, partial curve, poor fit]	–
COc1cccc(CNC(=O)c2nn(-c3ccccc3Cl)nc2CO)c1	–	inactive: -13.8%
Cc1ccc2oc(-c3ccc(C)c(NC(=O)c4ccc(C(C)(C)C)cc4)c3)nc2c1	inconclusive: 7.31 µM [activator, partial curve]	–
COC(=O)c1ccc(NC(=O)c2ccccc2C(=O)Nc2ccc(C(=O)OC)cc2)cc1	inconclusive: 1.84 µM [falling, partial curve, poor fit]	–
O=c1[nH]c2ccc(NCc3ccccc3OCc3ccc(Cl)cc3)cc2[nH]1	inconclusive: 18.4 µM [falling, single point]	–
O=C(O)c1cccc(S(=O)(=O)Nc2ccccc2C(=O)NCCc2ccccc2)c1	inconclusive: 5.8 µM [activator, full curve]	–
Cc1ncc(CC(=O)n2cc(C(=O)c3cc(F)ccc3O)cn2)s1	inconclusive: 1.3 µM [activator, partial curve, poor fit]	–

Some of these compounds in order of molar mass, high to low:
Compound	Potency	activity change, negative = inhibition
Cc1ccccc1NC(=O)c1ccc(C)c(S(=O)(=O)N2CCN(C)CC2)c1	–	inactive: 3.42%
COc1cccc(CNC(=O)c2nn(-c3ccccc3Cl)nc2CO)c1	–	inactive: -13.8%
CSc1ncc(CN2CCN(C(C)C)C(CCO)C2)cn1 (configuration not stated)	inconclusive: 23.1 µM [activator, partial curve, poor fit]	–
